Experiment: Reduction of HMF in sugar liquor after contact with amine
Protocol: Sugar liquor was prepared by a two-step hydrolysis process with subsequent refining. A slurry of particulate biomass was first subjected to a first hydrolysis step at about 190-240° C. and 50-80 bar for 1-120 min. The resulting solids were subjected to supercritical or near-critical water conditions at about 374-450° C. and 221-300 bar for less than 1 minute. The resulting liquid portion was concentrated to about 250-300 g/L of monomer sugar equivalent and acid hydrolyzed at about 100-200° C. for 1 hour. The acid-hydrolyzed liquor was filtered and neutralized with sodium hydroxide to a pH of about 5-7. After that, the liquid portion was overlimed with calcium oxide at pH of about 8-10 and filtered. The final pH adjustment to about 5-7 was done with 70% sulfuric acid. Overliming was performed to produce the sugar liquor used in these examples, and an aldehyde compound, HMF, subsequently re-added to simulate a sugar liquor that is not overlimed.
The pH of 100 g of the sugar liquor was adjusted to 6 with sodium hydroxide prior to addition of the amine. 1 g of m-phenylenediamine (MPD) was added to the sugar liquor, and the mixture was shaken for 1 hour.
Using the same procedure to prepare the sugar liquor as described in Example 1, the pH of 100 g of the sugar liquor was adjusted to 6 with NaOH prior to addition of the amine. For each sample, 1 g of amine was added, and the mixture was shaken for 1 hour.
Using the same procedure to prepare the sugar liquor as described in Example 1, the pH of 100 g of the sugar liquor was adjusted to 6 with sodium hydroxide prior to addition of the amine. For each sample, 1 g of amine was added, and the mixture was shaken for 1 hour.

[1] = sugar liquor after contact, 1 g amine per 100 g liquor, pH 6, shaken 1 hour
[2] = Table 6, sugar liquor after contact, 1 g amine per 100 g liquor, pH 6, shaken 1 hour

SMILES | Acetic Acid [1] [g/L] | Glucose [1] [g/L] | Xylose [1] [g/L] | Xylose [2] [g/1] | Acetic Acid (pH 6) [g/L] | Glucose (pH 6) [g/L] | Xylose (pH 6) [g/1]
Nc1cccc(N)c1 [MPD, m-phenylenediamine] | 1.99 | 149.44 | 23.22 |  |  |  | 
NCCO [ethanolamine] | 1.50 | 155.94 |  | 21.37 |  |  | 
Nc1ccccc1N [OPD, o-phenylenediamine] | 1.39 | 156.03 | 20.62 |  |  |  | 
Nc1ccc(N)cc1 [PPD, p-phenylenediamine] | 1.49 | 154.69 | 20.93 |  |  |  | 
NC(N)=O [urea] | 1.56 | 159.33 |  | 22.10 |  |  | 
Cc1ccc(N)cc1N [DAT, 2,4-diaminotoluene] | 1.34 | 158.80 | 21.30 |  |  |  | 
Nc1ccccc1 [aniline] | 1.42 | 165.00 |  | 22.78 |  |  | 
C1CCNCC1 [piperidine] |  |  |  |  | 1.55 | 156.87 | 21.63
Nc1nc(N)nc(N)n1 [melamine] | 1.40 | 159.77 |  | 21.79 |  |  | 

Source: patent US9410217B2, “Method of reducing a fermentation and/or enzyme inhibitor in a saccharide-containing composition” (priority 2014, dated 2016)
